Values from PubChem BioAssay AID504791 (Drosophila RNAi Screening Center, 2011)

Aim: 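Genes whose knock-down strengthens or weakens small-RNA reporter silencing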 (primary screen)
Cells: Drosophila S2-derived reporter cells
Reagents: long dsRNA against Drosophila genes, about 150-250 ng dsRNA per well (siRNA assay); about 80-120 ng (miRNA assay)
Timing: about 5 days (siRNA assay); about 4 days (miRNA assay)
Conditions: copper sulfate induction of reporters: 25 µM (siRNA assay); 200 mM stated (miRNA assay), 1-2 days before reading
Read-out: 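Dual luciferase assay: Renilla to firefly signal ratio in each well, scaled to the mean ratio of its plate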
Units: stable assay Renilla, run 1 in luminescence; stable assay firefly, run 1 in luminescence
Call rule: 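First-pass picks had plate-scaled ratios over 1.5 for the siRNA assay, over 1.6 for the miRNA assay, or under 0.6; two distinct dsRNAs had to score alike on retest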
The screen tested about 23,000 reagents; shown is an unselected part of those with a known target gene and a result. Over the whole deposit, 199 (0.86%) are marked active. 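Plate-scaled ratios behind the calls are not deposited; printed light signals are raw; many rows marked increased or decreased are still called inactive.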 A number with no mark means an inactive call. Not stated in the record: the direction of the score.

Knock-down of CG8299 [DRSC07139] came out at: stable assay Renilla, run 1 = 6659; stable assay firefly, run 1 = 4.21e5. For Ubc84D (Ubiquitin conjugating enzyme 84D) [DRSC12610], the entry reads stable assay Renilla, run 1 = 6499; stable assay firefly, run 1 = 3.65e5. Depletion of CG32132 (retired record) [DRSC22437] gave: stable assay Renilla, run 1 = 3839; stable assay firefly, run 1 = 3.08e5. With knock-down of CG32132 (retired record) [DRSC23128], the screen gave stable assay Renilla, run 1 = 4947; stable assay firefly, run 1 = 2.70e5. Knock-down of Trs20 (TRAPP subunit 20) [DRSC10489] gave: stable assay Renilla, run 1 = 7294; stable assay firefly, run 1 = 2.51e5. ATPsyndelta (ATP synthase, delta subunit) [DRSC18248] showed stable assay Renilla, run 1 = 3924; stable assay firefly, run 1 = 3.70e5.

Depletion of Atg5 (Autophagy-related 5) [DRSC18112] gave: stable assay Renilla, run 1 = 8218; stable assay firefly, run 1 = 5.95e5. Depletion of Ccp84Af [DRSC12591] gave: stable assay Renilla, run 1 = 7322; stable assay firefly, run 1 = 4.87e5. With knock-down of Tie (Tie-like receptor tyrosine kinase) [DRSC08104], the screen gave stable assay Renilla, run 1 = 4668; stable assay firefly, run 1 = 4.34e5. Against Tie (Tie-like receptor tyrosine kinase) [DRSC08702], the values are stable assay Renilla, run 1 = 7462; stable assay firefly, run 1 = 4.38e5. Silencing of CG8664 [DRSC20116] came out at: stable assay Renilla, run 1 = 5546; stable assay firefly, run 1 = 4.23e5. Against CG32751 [DRSC21770] the deposit lists stable assay Renilla, run 1 = 8850; stable assay firefly, run 1 = 5.23e5.

Knock-down of pit (pitchoune) [DRSC17025] resulted in: stable assay Renilla, run 1 = 6546; stable assay firefly, run 1 = 3.10e5. After knock-down of pit (pitchoune) [DRSC22798] the results were stable assay Renilla, run 1 = 3867; stable assay firefly, run 1 = 4.35e5. For pit (pitchoune) [DRSC28254], the entry reads miRNA reporter change reporter ratio raised past the hit cutoff. With knock-down of CG18367 [DRSC06545] the results were stable assay Renilla, run 1 = 4931; stable assay firefly, run 1 = 5.48e5. Knock-down of Mal-A8 (Maltase A8) [DRSC07234] gave: stable assay Renilla, run 1 = 7973; stable assay firefly, run 1 = 5.47e5. MstProx [DRSC12458] scored stable assay Renilla, run 1 = 6135; stable assay firefly, run 1 = 3.66e5.

MstProx [DRSC12601] showed stable assay Renilla, run 1 = 7348; stable assay firefly, run 1 = 4.41e5. Eh (Eclosion hormone) [DRSC16660] scored stable assay Renilla, run 1 = 6694; stable assay firefly, run 1 = 3.77e5. For mtrm (matrimony) [DRSC10322], the values are stable assay Renilla, run 1 = 5878; stable assay firefly, run 1 = 2.49e5. Against mtrm (matrimony) [DRSC23076], the values are stable assay Renilla, run 1 = 5187; stable assay firefly, run 1 = 4.08e5. After knock-down of CG32590 [DRSC19594] the results were stable assay Renilla, run 1 = 5919; stable assay firefly, run 1 = 4.35e5. With knock-down of CG1090 [DRSC12150] the results were stable assay Renilla, run 1 = 8943; stable assay firefly, run 1 = 4.29e5.

CG1090 [DRSC21604] gave stable assay Renilla, run 1 = 8887; stable assay firefly, run 1 = 4.40e5. CG15754 [DRSC19719] gave stable assay Renilla, run 1 = 4516; stable assay firefly, run 1 = 3.07e5. Cdc7 (Cdc7 kinase) [DRSC18428] scored stable assay Renilla, run 1 = 3827; stable assay firefly, run 1 = 3.54e5. After knock-down of Cdc7 (Cdc7 kinase) [DRSC18429] the results were stable assay Renilla, run 1 = 5287; stable assay firefly, run 1 = 3.24e5. Against Cdc7 (Cdc7 kinase) [DRSC22133] the deposit lists stable assay Renilla, run 1 = 11423; stable assay firefly, run 1 = 8.14e5. With knock-down of CG13376 [DRSC17901], the screen gave stable assay Renilla, run 1 = 5650; stable assay firefly, run 1 = 4.00e5.

With knock-down of shrb (shrub) [DRSC07061], the screen gave stable assay Renilla, run 1 = 8714; stable assay firefly, run 1 = 4.60e5. Silencing of CG6785 [DRSC02993] came out at: stable assay Renilla, run 1 = 9098; stable assay firefly, run 1 = 4.61e5. RpL24-like (Ribosomal protein L24-like) [DRSC16111] gave stable assay Renilla, run 1 = 6190; stable assay firefly, run 1 = 3.16e5. With knock-down of CG13060 [DRSC09943], the record shows stable assay Renilla, run 1 = 6668; stable assay firefly, run 1 = 4.52e5. After knock-down of Tsp42Eo (Tetraspanin 42Eo) [DRSC06184] the results were stable assay Renilla, run 1 = 7922; stable assay firefly, run 1 = 4.43e5.

5 entries already listed, sorted by “stable assay firefly, run 1”, ascending:
mtrm (matrimony) [DRSC10322] → stable assay Renilla, run 1: 5878; stable assay firefly, run 1: 2.49e5
Eh (Eclosion hormone) [DRSC16660] → stable assay Renilla, run 1: 6694; stable assay firefly, run 1: 3.77e5
mtrm (matrimony) [DRSC23076] → stable assay Renilla, run 1: 5187; stable assay firefly, run 1: 4.08e5
CG32590 [DRSC19594] → stable assay Renilla, run 1: 5919; stable assay firefly, run 1: 4.35e5
MstProx [DRSC12601] → stable assay Renilla, run 1: 7348; stable assay firefly, run 1: 4.41e5
